This is an account of results in patent US12522631B2, “Compounds for use in the treatment of liver disease” (The Provost, Fellows, Foundation Scholars, And The Other …, priority 2019, dated 2026).

Data set [1] deals with HUH-7 cells. In words: MTT cell viability assay, HUH-7 cells treated with DCA. Type of data set: cell-based. The following applies: 10 μM; 24 h before DCA 200 μM, then co-treated 24 h (FIG. 14b). The source says:
The difference between the observed cell viability in each of the assays is a consequence of the different properties measured in each assay. The alamarBlue™ assay uses resazurin-based reagents that function as cell health indicators by using the reducing power of living cells to quantitatively measure viability. Upon entering living cells, resazurin is reduced to resorufin, a compound that is red in color and highly fluorescent. The MTT assay is a colorimetric assay for assessing cell metabolic activity. NAD(P)H-dependent cellular oxidoreductase enzymes may, under defined conditions, reflect the number of viable cells present.
(In general: Tetrazolium dyes change colour on reduction, which living cells bring about.)

Data set [2] deals with HFD-F mice. In words: Mouse model of hepatic steatosis (HFD-F). The class given is in vivo, Male C57BL/6J strain mice.
The mark [3] stands for this setting: circulating transaminase activity (FIG. 13).
The mark [4] stands for this setting: final 2 weeks of the 28 week experiment.

`C[C@H](CCC(=O)O)[C@H]1CC[C@H]2[C@@H]3[C@@H](NS(C)(=O)=O)C[C@@H]4C[C@H](O)CC[C@]4(C)[C@H]3CC[C@]12C` [Compound 21, 3α-hydroxy-7β-(methanesulfonamido)-5β-cholanoate]: in data set [1], the “cell viability (MTT)” value is “approximately 75%”. Moreover, the “visceral fat as a percentage of body weight” value in data set [2] (30 mg/kg intraperitoneally daily, last two weeks (FIG. 10a)) is on record as “no reduction in visceral fat was observed”. In addition, the overall body weight result in data set [2] (30 mg/kg intraperitoneally daily, last two weeks of 28 weeks HFD-F, data not shown) is on record as “reduction in overall body weight compared with vehicle”. Besides, in data set [2] (30 mg/kg intraperitoneally daily, last two weeks, vs UDCA and vehicle (FIG. 10b)), the “liver weight as a percentage of body weight” value is “significant reduction in liver weight”. The “steatosis in H&E liver sections” value in data set [2] (14 d treatment, vs UDCA and vehicle (FIG. 11)) is “reduced evidence of steatosis and associated liver damage”. In data set [2] (setting [3]), the ALT entry is recorded as “reduction in ALT” and the “AST:ALT ratio” value is “reduction”. For the same compound, in data set [2] (composite histopathological score (FIG. 12)), the “total NASH score” value is listed as “significant reduction in total NASH score”. Further, in data set [2] (setting [4]), the circulating transaminases result is “significant reduction in circulating transaminases” and the histopathologically evident steatohepatitis was “significant reduction in histopathologically evident steatohepatitis”.
